# Results taken from the supplement of paper PMC6411743.
# Sequences of proteins named here, by UniProt entry; tags and fusion partners are left off. A change or cut given only in a name is not applied to a line headed by its entry.
# UniProt O95155, whole entry: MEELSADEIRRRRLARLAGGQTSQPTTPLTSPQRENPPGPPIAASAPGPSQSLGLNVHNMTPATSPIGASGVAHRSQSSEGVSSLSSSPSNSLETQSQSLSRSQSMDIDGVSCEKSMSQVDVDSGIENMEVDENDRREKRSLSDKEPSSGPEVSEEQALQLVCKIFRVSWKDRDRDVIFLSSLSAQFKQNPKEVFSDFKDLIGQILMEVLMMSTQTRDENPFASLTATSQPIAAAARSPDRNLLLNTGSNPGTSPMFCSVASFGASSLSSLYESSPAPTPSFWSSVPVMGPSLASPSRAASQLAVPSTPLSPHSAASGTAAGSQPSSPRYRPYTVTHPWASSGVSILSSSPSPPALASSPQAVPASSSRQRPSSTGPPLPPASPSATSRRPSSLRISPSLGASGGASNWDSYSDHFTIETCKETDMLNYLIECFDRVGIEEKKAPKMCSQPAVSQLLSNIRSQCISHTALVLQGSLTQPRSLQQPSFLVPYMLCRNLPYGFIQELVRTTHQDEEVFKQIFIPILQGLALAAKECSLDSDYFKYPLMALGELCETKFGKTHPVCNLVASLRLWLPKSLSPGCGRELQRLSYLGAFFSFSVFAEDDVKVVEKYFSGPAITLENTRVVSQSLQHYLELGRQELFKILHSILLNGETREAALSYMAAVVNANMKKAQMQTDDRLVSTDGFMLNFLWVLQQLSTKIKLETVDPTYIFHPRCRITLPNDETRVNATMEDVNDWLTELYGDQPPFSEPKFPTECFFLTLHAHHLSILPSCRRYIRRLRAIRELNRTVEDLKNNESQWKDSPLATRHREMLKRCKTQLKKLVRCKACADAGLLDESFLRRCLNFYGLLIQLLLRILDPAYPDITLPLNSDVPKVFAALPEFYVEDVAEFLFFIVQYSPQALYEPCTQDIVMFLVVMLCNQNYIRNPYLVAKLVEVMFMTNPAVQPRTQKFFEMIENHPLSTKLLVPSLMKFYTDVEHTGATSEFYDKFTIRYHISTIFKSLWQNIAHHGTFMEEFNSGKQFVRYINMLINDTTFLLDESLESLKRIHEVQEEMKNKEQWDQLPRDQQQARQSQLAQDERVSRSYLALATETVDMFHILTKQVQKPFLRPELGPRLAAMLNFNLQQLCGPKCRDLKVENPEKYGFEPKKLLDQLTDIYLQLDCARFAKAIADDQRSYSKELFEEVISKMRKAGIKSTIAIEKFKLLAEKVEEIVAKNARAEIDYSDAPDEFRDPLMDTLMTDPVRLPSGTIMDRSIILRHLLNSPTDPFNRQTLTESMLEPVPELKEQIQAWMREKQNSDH
# UniProt O60506: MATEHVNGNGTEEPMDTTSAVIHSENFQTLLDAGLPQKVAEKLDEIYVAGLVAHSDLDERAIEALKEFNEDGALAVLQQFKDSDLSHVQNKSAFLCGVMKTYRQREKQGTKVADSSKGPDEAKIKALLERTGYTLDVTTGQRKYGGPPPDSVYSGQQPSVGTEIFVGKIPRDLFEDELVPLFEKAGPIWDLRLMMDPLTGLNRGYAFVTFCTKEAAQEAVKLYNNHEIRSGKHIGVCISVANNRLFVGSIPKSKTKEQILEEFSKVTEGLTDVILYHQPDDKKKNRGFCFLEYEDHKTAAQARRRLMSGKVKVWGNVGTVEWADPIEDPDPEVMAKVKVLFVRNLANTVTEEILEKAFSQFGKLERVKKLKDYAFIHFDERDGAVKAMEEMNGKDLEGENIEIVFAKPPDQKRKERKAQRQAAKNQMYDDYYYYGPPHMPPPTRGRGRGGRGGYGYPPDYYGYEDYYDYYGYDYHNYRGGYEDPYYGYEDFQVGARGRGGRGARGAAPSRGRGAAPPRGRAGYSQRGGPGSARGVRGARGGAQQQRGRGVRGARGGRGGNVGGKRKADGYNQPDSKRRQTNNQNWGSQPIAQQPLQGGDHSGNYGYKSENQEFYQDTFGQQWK
# UniProt O60828: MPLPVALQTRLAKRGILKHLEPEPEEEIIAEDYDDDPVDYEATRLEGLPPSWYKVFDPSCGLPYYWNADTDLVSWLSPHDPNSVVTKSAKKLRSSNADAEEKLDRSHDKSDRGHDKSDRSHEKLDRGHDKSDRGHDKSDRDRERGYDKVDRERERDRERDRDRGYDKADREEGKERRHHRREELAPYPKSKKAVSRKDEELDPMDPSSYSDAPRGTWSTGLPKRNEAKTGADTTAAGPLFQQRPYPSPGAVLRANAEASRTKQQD
# UniProt O75822, whole entry: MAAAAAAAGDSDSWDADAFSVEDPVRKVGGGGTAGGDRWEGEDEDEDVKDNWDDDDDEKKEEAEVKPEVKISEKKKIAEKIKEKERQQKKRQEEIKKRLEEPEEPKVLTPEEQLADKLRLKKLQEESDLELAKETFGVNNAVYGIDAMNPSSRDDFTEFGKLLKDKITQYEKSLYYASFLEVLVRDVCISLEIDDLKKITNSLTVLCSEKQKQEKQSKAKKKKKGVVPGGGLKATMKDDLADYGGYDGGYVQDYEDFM
# UniProt O60925, whole entry: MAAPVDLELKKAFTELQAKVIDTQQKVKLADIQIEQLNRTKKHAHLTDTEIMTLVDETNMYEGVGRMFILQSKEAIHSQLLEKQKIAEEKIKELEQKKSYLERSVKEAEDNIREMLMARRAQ
# UniProt O75995: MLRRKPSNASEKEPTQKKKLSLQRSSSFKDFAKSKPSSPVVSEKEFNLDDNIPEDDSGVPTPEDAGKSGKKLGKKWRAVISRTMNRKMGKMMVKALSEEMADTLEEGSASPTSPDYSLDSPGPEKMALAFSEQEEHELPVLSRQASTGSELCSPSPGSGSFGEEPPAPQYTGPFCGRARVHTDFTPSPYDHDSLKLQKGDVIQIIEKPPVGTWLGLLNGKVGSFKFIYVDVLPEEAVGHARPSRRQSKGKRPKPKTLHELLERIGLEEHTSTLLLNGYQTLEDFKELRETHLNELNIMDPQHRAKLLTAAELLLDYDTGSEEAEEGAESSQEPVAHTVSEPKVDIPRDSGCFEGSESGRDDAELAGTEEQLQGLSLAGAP
# UniProt O94915: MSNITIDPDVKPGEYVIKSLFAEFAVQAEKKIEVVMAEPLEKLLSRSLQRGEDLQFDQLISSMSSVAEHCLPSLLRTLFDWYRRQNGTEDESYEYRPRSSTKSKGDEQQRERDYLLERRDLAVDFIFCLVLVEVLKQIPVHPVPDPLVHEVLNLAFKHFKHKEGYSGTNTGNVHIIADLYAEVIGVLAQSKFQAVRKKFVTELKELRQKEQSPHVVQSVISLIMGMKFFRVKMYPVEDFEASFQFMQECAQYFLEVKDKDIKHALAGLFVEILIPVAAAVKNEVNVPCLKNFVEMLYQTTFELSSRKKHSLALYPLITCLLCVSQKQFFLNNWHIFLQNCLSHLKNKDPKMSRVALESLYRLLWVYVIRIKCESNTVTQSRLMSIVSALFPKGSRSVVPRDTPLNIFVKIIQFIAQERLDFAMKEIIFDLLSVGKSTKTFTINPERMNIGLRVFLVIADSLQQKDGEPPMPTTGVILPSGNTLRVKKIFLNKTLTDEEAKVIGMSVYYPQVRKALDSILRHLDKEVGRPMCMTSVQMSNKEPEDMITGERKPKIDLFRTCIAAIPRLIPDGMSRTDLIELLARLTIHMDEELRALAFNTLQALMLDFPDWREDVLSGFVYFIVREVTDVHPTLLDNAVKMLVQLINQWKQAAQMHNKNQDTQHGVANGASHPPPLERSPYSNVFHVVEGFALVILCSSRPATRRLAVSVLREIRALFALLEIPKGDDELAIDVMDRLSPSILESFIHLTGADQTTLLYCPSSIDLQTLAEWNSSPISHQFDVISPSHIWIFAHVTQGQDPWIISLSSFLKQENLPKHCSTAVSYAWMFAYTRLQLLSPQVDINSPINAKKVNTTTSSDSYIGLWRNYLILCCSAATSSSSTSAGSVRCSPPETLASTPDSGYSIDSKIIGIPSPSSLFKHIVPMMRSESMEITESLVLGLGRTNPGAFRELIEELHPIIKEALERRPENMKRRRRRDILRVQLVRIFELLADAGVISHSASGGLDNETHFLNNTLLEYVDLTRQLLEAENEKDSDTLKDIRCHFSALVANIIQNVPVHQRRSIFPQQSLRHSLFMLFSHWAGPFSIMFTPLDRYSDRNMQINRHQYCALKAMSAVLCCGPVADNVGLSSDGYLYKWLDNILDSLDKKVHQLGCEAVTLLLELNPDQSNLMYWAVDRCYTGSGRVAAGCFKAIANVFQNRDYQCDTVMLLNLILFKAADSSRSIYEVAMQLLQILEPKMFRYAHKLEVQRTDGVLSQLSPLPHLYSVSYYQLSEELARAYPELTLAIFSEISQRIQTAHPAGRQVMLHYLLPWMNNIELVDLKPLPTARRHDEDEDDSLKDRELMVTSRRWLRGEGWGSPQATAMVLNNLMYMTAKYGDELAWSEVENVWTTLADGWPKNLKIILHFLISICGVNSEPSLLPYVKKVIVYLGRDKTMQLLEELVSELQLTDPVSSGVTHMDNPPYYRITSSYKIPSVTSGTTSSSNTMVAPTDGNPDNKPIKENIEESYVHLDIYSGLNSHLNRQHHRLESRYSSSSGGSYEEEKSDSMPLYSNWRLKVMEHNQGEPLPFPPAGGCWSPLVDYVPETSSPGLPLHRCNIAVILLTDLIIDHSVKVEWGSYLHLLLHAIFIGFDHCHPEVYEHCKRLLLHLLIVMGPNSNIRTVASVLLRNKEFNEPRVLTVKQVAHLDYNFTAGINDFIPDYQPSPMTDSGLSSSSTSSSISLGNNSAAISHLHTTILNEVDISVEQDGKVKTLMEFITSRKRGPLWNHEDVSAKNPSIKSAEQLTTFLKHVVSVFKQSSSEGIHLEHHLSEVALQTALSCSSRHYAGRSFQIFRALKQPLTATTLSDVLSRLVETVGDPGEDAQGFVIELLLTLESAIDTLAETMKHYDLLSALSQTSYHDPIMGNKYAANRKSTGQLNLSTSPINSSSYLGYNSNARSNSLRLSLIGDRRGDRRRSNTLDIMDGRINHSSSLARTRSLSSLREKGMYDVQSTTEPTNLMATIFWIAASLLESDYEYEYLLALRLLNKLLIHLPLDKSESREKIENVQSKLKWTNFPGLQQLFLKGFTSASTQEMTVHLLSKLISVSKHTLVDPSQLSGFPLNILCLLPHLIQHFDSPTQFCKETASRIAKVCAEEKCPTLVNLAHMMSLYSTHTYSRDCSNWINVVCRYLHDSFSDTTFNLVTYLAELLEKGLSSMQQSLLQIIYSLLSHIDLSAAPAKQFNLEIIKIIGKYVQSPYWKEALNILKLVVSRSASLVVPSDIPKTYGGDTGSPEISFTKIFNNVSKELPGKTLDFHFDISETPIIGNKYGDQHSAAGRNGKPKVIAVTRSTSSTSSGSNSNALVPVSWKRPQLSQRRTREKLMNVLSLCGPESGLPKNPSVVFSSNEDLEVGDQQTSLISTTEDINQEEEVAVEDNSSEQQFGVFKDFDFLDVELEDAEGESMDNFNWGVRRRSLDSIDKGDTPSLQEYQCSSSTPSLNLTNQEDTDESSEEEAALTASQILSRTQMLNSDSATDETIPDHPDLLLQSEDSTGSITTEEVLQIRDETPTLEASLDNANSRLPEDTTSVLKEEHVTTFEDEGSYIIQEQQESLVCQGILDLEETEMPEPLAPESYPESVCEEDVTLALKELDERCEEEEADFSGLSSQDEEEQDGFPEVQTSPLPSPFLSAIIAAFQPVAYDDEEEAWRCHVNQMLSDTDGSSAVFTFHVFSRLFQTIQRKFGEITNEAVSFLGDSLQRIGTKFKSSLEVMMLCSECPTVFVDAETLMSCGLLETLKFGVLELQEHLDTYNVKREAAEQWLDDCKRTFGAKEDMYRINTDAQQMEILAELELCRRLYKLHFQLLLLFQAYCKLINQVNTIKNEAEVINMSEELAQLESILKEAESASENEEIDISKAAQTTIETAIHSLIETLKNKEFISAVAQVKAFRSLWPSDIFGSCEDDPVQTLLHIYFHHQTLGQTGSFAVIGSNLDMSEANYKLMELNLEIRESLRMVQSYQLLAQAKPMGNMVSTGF
# ± gives the standard deviation of the averaged measurements. The list shows a part of the results, in another mix than the full data.
# Compound: Nc1ncnc2c1ncn2[C@@H]1O[C@H](COP(=O)(O)OP(=O)(O)OP(=O)(O)O)[C@@H](O)[C@H]1O [adenosine triphosphate]
# Assay: NP40-soluble protein abundance relative to vehicle (solubility fold change) (ratio); higher = more soluble protein in presence of ATP
# Procedure, shortened: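 Jurkat crude lysate (Dounce-homogenised) was treated with eight concentrations from 0.1 to 10 mM for 10 min at room temperature, then 3 min at 37 °C. It was solubilised with 0.8% NP40 and benzonase (60 min, 4 °C) and ultracentrifuged, and the supernatant was TMT-labelled for LC-MS/MS. Intensities were vsn-normalised, and the value is the fold change against the NP40-processed vehicle per replicate, from three independent experiments.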
Target,NP40-soluble protein abundance (concentration: 1mM),NP40-soluble protein abundance (concentration: 2mM),NP40-soluble protein abundance (concentration: 4mM),NP40-soluble protein abundance (concentration: 6mM),NP40-soluble protein abundance (concentration: 8mM),NP40-soluble protein abundance (concentration: 10mM)
GLRX3 (UniProt O76003),1.01 ± 0.022,1.013 ± 0.0094,0.957 ± 0.02,1.03 ± 0.035,0.95 ± 0.048,0.948 ± 0.02
UniProt O95155 and related entries,1.01 ± 0.053,1.01 ± 0.045,0.991 ± 0.053,0.958 ± 0.066,0.984 ± 0.037,0.987 ± 0.022
ERLIN1 (UniProt O75477),1.03 ± 0.054,0.983 ± 0.076,0.944 ± 0.049,1.02 ± 0.18,0.968 ± 0.069,0.982 ± 0.064
UniProt O75157 and related entries,0.889 ± 0.11,0.915 ± 0.031,0.914 ± 0.057,0.925 ± 0.078,0.851 ± 0.058,0.87 ± 0.046
SLC16A7 (UniProt O60669),0.937 ± 0.084,0.92 ± 0.11,0.995 ± 0.055,0.995 ± 0.088,0.953 ± 0.05,0.977 ± 0.084
DNAJA2 (UniProt O60884),1.03 ± 0.038,0.978 ± 0.025,0.954 ± 0.028,1.02 ± 0.089,0.996 ± 0.058,1.02 ± 0.073
UniProt O60506 and related entries,0.946 ± 0.09,0.841 ± 0.19,0.982 ± 0.059,0.921 ± 0.1,1.03 ± 0.065,0.982 ± 0.059
KPNA6 (UniProt O60684),1.02 ± 0.026,1.02 ± 0.029,1.034 ± 0.0041,1 ± 0.053,1.03 ± 0.014,1.03 ± 0.029
UniProt O60861,0.987 ± 0.05,0.9947 ± 0.0049,0.973 ± 0.034,1.02 ± 0.036,0.9706 ± 0.0053,0.964 ± 0.027
UniProt O60828 and related entries,1.04 ± 0.13,1.07 ± 0.046,1.06 ± 0.079,1.18 ± 0.07,1.12 ± 0.038,1.11 ± 0.039
ARIH2 (UniProt O95376),0.961 ± 0.052,0.987 ± 0.055,0.997 ± 0.084,0.965 ± 0.068,0.955 ± 0.11,0.992 ± 0.04
HUS1 (UniProt O60921),1.03 ± 0.032,0.978 ± 0.039,0.973 ± 0.022,0.949 ± 0.049,0.985 ± 0.036,0.986 ± 0.062
UniProt O95394 and related entries,1.03 ± 0.047,1.03 ± 0.066,1 ± 0.053,0.978 ± 0.092,1.02 ± 0.057,0.996 ± 0.048
UniProt O95551,0.992 ± 0.044,0.962 ± 0.042,0.95 ± 0.045,0.946 ± 0.05,0.938 ± 0.045,0.923 ± 0.024
UniProt O75175 and related entries,1.15 ± 0.04,1.2 ± 0.033,1.23 ± 0.042,1.32 ± 0.1,1.3 ± 0.057,1.332 ± 0.012
UniProt O76095 and related entries,0.872 ± 0.065,0.883 ± 0.044,0.779 ± 0.027,0.871 ± 0.095,0.873 ± 0.042,0.832 ± 0.025
UniProt O75822 and related entries,0.745 ± 0.1,0.708 ± 0.1,0.705 ± 0.086,0.868 ± 0.12,0.907 ± 0.053,0.992 ± 0.047
UniProt O75879 and related entries,0.9649 ± 0.0093,0.9749 ± 0.0054,0.974 ± 0.041,0.975 ± 0.026,0.948 ± 0.011,0.971 ± 0.029
UniProt O75648 and related entries,1.06 ± 0.16,0.996 ± 0.11,1.01 ± 0.11,0.942 ± 0.16,1 ± 0.098,1.08 ± 0.16
TAF5L (UniProt O75529),1.11 ± 0.073,1.08 ± 0.091,1.16 ± 0.11,1.05 ± 0.1,1.16 ± 0.078,1.23 ± 0.17
STAM2 (UniProt O75886),0.931 ± 0.052,0.947 ± 0.027,0.954 ± 0.025,0.959 ± 0.017,0.895 ± 0.023,0.9 ± 0.028
UniProt O75608 and related entries,0.909 ± 0.036,0.96 ± 0.067,0.902 ± 0.027,0.952 ± 0.06,0.91 ± 0.0094,0.877 ± 0.079
WDHD1 (UniProt O75717),0.957 ± 0.03,0.954 ± 0.023,0.921 ± 0.01,0.959 ± 0.034,0.932 ± 0.013,0.926 ± 0.023
DDHD2 (UniProt O94830),1.04 ± 0.036,1.04 ± 0.039,1.02 ± 0.028,0.969 ± 0.055,0.996 ± 0.039,0.9892 ± 0.0087
PFDN1 (UniProt O60925),0.912 ± 0.1,0.928 ± 0.075,0.922 ± 0.072,0.983 ± 0.11,0.892 ± 0.032,0.853 ± 0.092
RNASEH1 (UniProt O60930),1.06 ± 0.013,1.09 ± 0.017,1.15 ± 0.1,1.13 ± 0.054,1.14 ± 0.073,1.14 ± 0.032
UniProt O94842 and related entries,0.976 ± 0.043,0.986 ± 0.056,1 ± 0.027,1.11 ± 0.043,1.001 ± 0.0049,1 ± 0.071
SASH3 (UniProt O75995),0.672 ± 0.2,0.609 ± 0.19,0.582 ± 0.23,0.591 ± 0.22,0.571 ± 0.24,0.553 ± 0.2
FRYL (UniProt O94915),1.1 ± 0.069,1.05 ± 0.036,1.07 ± 0.065,1.05 ± 0.12,1.12 ± 0.087,1.1 ± 0.11
UniProt O75530,1.17 ± 0.13,1.23 ± 0.08,1.27 ± 0.081,1.18 ± 0.15,1.35 ± 0.038,1.39 ± 0.093

# Pulled one by one from the entries so far (2):
Target,NP40-soluble protein abundance (concentration: 1mM),NP40-soluble protein abundance (concentration: 2mM),NP40-soluble protein abundance (concentration: 4mM),NP40-soluble protein abundance (concentration: 6mM),NP40-soluble protein abundance (concentration: 8mM),NP40-soluble protein abundance (concentration: 10mM)
STAM2 (UniProt O75886),0.931 ± 0.052,0.947 ± 0.027,0.954 ± 0.025,0.959 ± 0.017,0.895 ± 0.023,0.9 ± 0.028
KPNA6 (UniProt O60684),1.02 ± 0.026,1.02 ± 0.029,1.034 ± 0.0041,1 ± 0.053,1.03 ± 0.014,1.03 ± 0.029
